Where “and” joins values, the source holds several entries; their conditions need not be identical. Equal entries are not always repeated. This list holds what a sample rich in hits left over. Records with an inconclusive call do not appear. Calls of active or inactive are those of the source. The call rests on the fitted dose curve; tested in HEK293 cells.
Experiment: qHTS for Inhibitors of binding or entry into cells for Marburg Virus
Details: Marburg virus pseudotype entry/binding inhibition, cell-based; at 49.2 µM (top of the series)
On the % scale 0 is the no-effect control and ±100 the full control effect.

Compound	activity change, negative = inhibition
O=C(CCCCCCC(=O)Nc1ccccc1)NO	inactive: -7.8% and inactive: -10.1%
